For part of these data: Strings that start with PEPTIDE1 are HELM notation: dots part the residues, brackets hold end groups and non-standard residues.
What was measured:
[1] = general procedure: Fmoc solid-phase peptide synthesis; Fmoc-Linker MBHA Resin; preloaded CTC resins (Fmoc-Cys(Trt)-CTC, Fmoc-Beta-HomoCys(Trt)-CTC, Fmoc-Phe-CTC, Fmoc-1Nal-CTC); DIC/HOBt (amino acid : DIC : HOBt = 3 : 3 : 3); conditions: trifluoroacetate
[2] = general procedure: Fmoc solid-phase peptide synthesis; CTC resin; DIC/HOBt (amino acid : DIC : HOBt = 3 : 3 : 3); conditions: whole synthesis, scale 1 mmol, trifluoroacetate, thioether ring, sequence written open
[3] = whole synthesis, thioether ring, sequence written open

In the case of “Hex-Cys-Pro-Pro-Thr-Gln-Phe-Cys-CH2NH-(D-beta-HomoAla-tranexamic acid-DOTA) (Cys bridge 2,6-bis(bromomethyl)fluorobenzene) trifluoroacetate”, the “final HPLC purity” value ([1]; cyclisation step) is reported as 99.4%.
With “Hexanoyl-(Cys(tMeBn(DOTA-AET))-D-Pro-Pro-Thr-Gln-1Nal-betahomoCys)-OH” the “final HPLC purity” value [1, 3] was 90.14%.
In the case of “Hexanoyl-(Cys(tMeBn(DOTA-AET))-Pro-D-Pro-Thr-Gln-1Nal-betahomoCys)-OH”, the “final HPLC purity” value [1, 3] is reported as 90.13%.
In the case of “Hexanoyl-(Cys(tMeBn(DOTA-AET))-Pro-Pro-D-Thr-Gln-1Nal-betahomoCys)-OH”, the “final HPLC purity” value [1, 3] is reported as 92.36%.
For “Hexanoyl-(Cys(tMeBn(DOTA-AET))-Pro-Pro-Thr-D-Gln-1Nal-betahomoCys)-OH”, the “final HPLC purity” value [1, 3] was 94.36%.
For “Hexanoyl-(Cys(tMeBn(DOTA-AET))-Pro-Pro-Thr-Gln-D-1Nal-betahomoCys)-OH”, the “final HPLC purity” value [1, 3] was 94.76%.
In the case of “Hexanoyl-(D-Cys(tMeBn(DOTA-AET))-Pro-Pro-Thr-Gln-1Nal-betahomoCys)-OH”, the “final HPLC purity” value [2] is reported as 95.44%.
For “PEPTIDE1{[Hex].C.P.P.T.Q.F.C}|CHEM1{[FmXyl]}$PEPTIDE1,CHEM1,2:R3-1:R1|PEPTIDE1,CHEM1,8:R3-1:R2$$$V2.0”, the “final HPLC purity” value ([1]; cyclisation step) was 99.6%.
For “PEPTIDE1{[Hex].C.P.P.T.Q.F.C}|CHEM1{[tMeTriazine(DOTA-AET)]}$PEPTIDE1,CHEM1,2:R3-1:R1|PEPTIDE1,CHEM1,8:R3-1:R2$$$V2.0”, the “final HPLC purity” value ([1]; conjugation step) was 98.5%.
In the case of “PEPTIDE1{[Hex].C.P.P.T.Q.F.[Cys-CH2NH2]}|CHEM1{[mXyl]}$PEPTIDE1,CHEM1,2:R3-1:R1|PEPTIDE1,CHEM1,8:R3-1:R2$$$V2.0”, the “final HPLC purity” value ([1]; cyclisation step) is reported as 95.2%.
With “PEPTIDE1{[Hex].C.P.P.T.Q.F.[Cys-CH2NHAc]}|CHEM1{[mXyl]}$PEPTIDE1,CHEM1,2:R3-1:R1|PEPTIDE1,CHEM1,8:R3-1:R2$$$V2.0” the “final HPLC purity” value ([1]; cyclisation step) was 96.9%.
With “PEPTIDE1{[Hex].C.P.P.T.Q.F.[bhCys].D.[am]}|CHEM1{[mXyl]}$PEPTIDE1,CHEM1,2:R3-1:R1|PEPTIDE1,CHEM1,8:R3-1:R2$$$V2.0” the “final HPLC purity” value ([1]; cyclisation step) was 98.2%.
In the case of “PEPTIDE1{[Hex].C.P.P.T.Q.F.[bhCys]}|CHEM1{[mXyl]}$PEPTIDE1,CHEM1,2:R3-1:R1|PEPTIDE1,CHEM1,8:R3-1:R2$$$V2.0”, the “final HPLC purity” value ([1]; cyclisation step) is reported as 99.3%.
For “PEPTIDE1{[Hex].C.P.P.T.Q.F.[bhCys]}|CHEM1{[tMeBn(DOTA-AET)]}$PEPTIDE1,CHEM1,2:R3-1:R1|PEPTIDE1,CHEM1,8:R3-1:R2$$$V2.0”, the “final HPLC purity” value ([1]; conjugation step) was 99.1%.
In the case of “PEPTIDE1{[Hex].C.P.P.T.Q.[1Nal].[Beta-homo-Cys].[NHBCP]}|CHEM1{[mXyl]}$PEPTIDE1,CHEM1,2:R3-1:R1|PEPTIDE1,CHEM1,8:R3-1:R2$$$V2.0”, the “final HPLC purity” value ([1]; cyclisation step) is reported as 98.1%.
In the case of “PEPTIDE1{[Hex].C.P.P.T.Q.[1Nal].[Beta-homo-Cys].[NHCH2-4Pyr]}|CHEM1{[mXyl]}$PEPTIDE1,CHEM1,2:R3-1:R1|PEPTIDE1,CHEM1,8:R3-1:R2$$$V2.0”, the “final HPLC purity” value ([1]; cyclisation step) is reported as 98.3%.
With “PEPTIDE1{[Hex].C.P.P.T.Q.[1Nal].[Beta-homo-Cys].[NHCH2cPen]}|CHEM1{[mXyl]}$PEPTIDE1,CHEM1,2:R3-1:R1|PEPTIDE1,CHEM1,8:R3-1:R2$$$V2.0” the “final HPLC purity” value ([1]; cyclisation step) was 99.2%.
In the case of “PEPTIDE1{[Hex].C.P.P.T.Q.[1Nal].[Beta-homo-Cys].[NHPh]}|CHEM1{[mXyl]}$PEPTIDE1,CHEM1,2:R3-1:R1|PEPTIDE1,CHEM1,8:R3-1:R2$$$V2.0”, the “final HPLC purity” value ([1]; cyclisation step) is reported as 99.5%.
With “PEPTIDE1{[Hex].C.P.P.T.Q.[1Nal].[Beta-homo-Cys].[NHcPen]}|CHEM1{[mXyl]}$PEPTIDE1,CHEM1,2:R3-1:R1|PEPTIDE1,CHEM1,8:R3-1:R2$$$V2.0” the “final HPLC purity” value ([1]; cyclisation step) was 99.3%.
With “PEPTIDE1{[Hex].C.P.P.T.Q.[1Nal].[Cys-CH2NH-CF3PhPr]}|CHEM1{[tMeBn(DOTA-AET)]}$PEPTIDE1,CHEM1,2:R3-1:R1|PEPTIDE1,CHEM1,8:R3-1:R2$$$V2.0” the “final HPLC purity” value ([1]; conjugation step) was 96.1%.
For “PEPTIDE1{[Hex].C.P.P.T.Q.[1Nal].[D-betahomoCys]}|CHEM1{[tMeBn(DOTA-AET)]}$PEPTIDE1,CHEM1,2:R3-1:R1|PEPTIDE1,CHEM1,8:R3-1:R2$$$V2.0”, the “final HPLC purity” value ([1]; whole synthesis) was 90%.
With “PEPTIDE1{[Hex].C.P.P.T.Q.[1Nal].[bhCys].[NHBn]}|CHEM1{[mXyl]}$PEPTIDE1,CHEM1,2:R3-1:R1|PEPTIDE1,CHEM1,8:R3-1:R2$$$V2.0” the “final HPLC purity” value ([1]; cyclisation step) was 97%.
For “PEPTIDE1{[Hex].C.P.P.T.Q.[1Nal].[bhCys].[NHPentyl]}|CHEM1{[mXyl]}$PEPTIDE1,CHEM1,2:R3-1:R1|PEPTIDE1,CHEM1,8:R3-1:R2$$$V2.0”, the “final HPLC purity” value ([1]; cyclisation step) was 99.5%.
In the case of “PEPTIDE1{[Hex].C.P.P.T.Q.[1Nal].[bhCys].[am]}|CHEM1{[mXyl]}$PEPTIDE1,CHEM1,2:R3-1:R1|PEPTIDE1,CHEM1,8:R3-1:R2$$$V2.0”, the “final HPLC purity” value ([1]; cyclisation step) is reported as 98.9%.
With “PEPTIDE1{[Hex].C.P.P.T.Q.[1Nal].[bhCys]}|CHEM1{[tMeBn(DOTA-AET)]}$PEPTIDE1,CHEM1,2:R3-1:R1|PEPTIDE1,CHEM1,8:R3-1:R2$$$V2.0” the “final HPLC purity” value ([1]; conjugation step) was 99.0%.
With “PEPTIDE1{[Hex].C.P.P.T.Q.[Cha].C}|CHEM1{[mXyl]}$PEPTIDE1,CHEM1,2:R3-1:R1|PEPTIDE1,CHEM1,8:R3-1:R2$$$V2.0” the “final HPLC purity” value ([1]; cyclisation step) was 99.1%.
For “PEPTIDE1{[Nle].C.P.P.T.Q.[1Nal].[Beta-homo-Cys]}|CHEM1{[mXyl]}$PEPTIDE1,CHEM1,2:R3-1:R1|PEPTIDE1,CHEM1,8:R3-1:R2$$$V2.0”, the “final HPLC purity” value ([1]; cyclisation step) was 98.6%.

Source: EP4653451A1 (Chengdu New Radiomedicine Technology Co., Ltd., priority 2023, dated 2024)
